Measurements reported in PubChem BioAssay AID1224830 (NIAID, 2016)

Purpose: 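Regulators of TLR4 signalling towards TNF-alpha in macrophage-like cells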 (primary screen)
Cells: human THP-1 monocytic leukaemia cells, TNF dual-luciferase reporter clone, PMA-differentiated to macrophage-like cells
Reagents: siRNA pool against human genes, 50 nM
Time to read-out: LPS for 4 h, given about 3 days after siRNA transfection
Treatment: bacterial LPS (TLR4 ligand), 10 ng/ml
Detection: 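Ratio of firefly to renilla light, scaled to the plate median and expressed as a robust z-score per replicate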
Reading the numbers: TNF reporter robust z-score: higher = stronger TNF reporter response to LPS
Call rule: 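Each well counts as active if its z-score is over 2.8 or under -1.5; controls are left without a call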
The whole screen tested about 18,000 reagents; shown is an unselected part. In the full data, about 2,900 (16%) were called active. 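Calls are made per well; low scores hint the gene aids the LPS response, high scores that it dampens it.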 Repeated entries: four replicate wells of each siRNA pool.

target	PubChem SID	TNF reporter robust z-score	Call
DERA (deoxyribose-phosphate aldolase)	SID315456442	-1.27	inactive
DERA (deoxyribose-phosphate aldolase)	SID315456442	-1.26	inactive
DERA (deoxyribose-phosphate aldolase)	SID315456442	-0.87	inactive
DERA (deoxyribose-phosphate aldolase)	SID315456442	-1.03	inactive
VPS26A (VPS26 retromer complex component A)	SID315453383	-1.08	inactive
VPS26A (VPS26 retromer complex component A)	SID315453383	-0.51	inactive
VPS26A (VPS26 retromer complex component A)	SID315453383	-0.83	inactive
VPS26A (VPS26 retromer complex component A)	SID315453383	-0.47	inactive
CLEC3B (C-type lectin domain family 3 member B)	SID315451917	-1.36	inactive
CLEC3B (C-type lectin domain family 3 member B)	SID315451917	-0.17	inactive
CLEC3B (C-type lectin domain family 3 member B)	SID315451917	-0.19	inactive
CLEC3B (C-type lectin domain family 3 member B)	SID315451917	-1.49	inactive
AVL9 (AVL9 cell migration associated)	SID315454975	-0.46	inactive
AVL9 (AVL9 cell migration associated)	SID315454975	1.77	inactive
AVL9 (AVL9 cell migration associated)	SID315454975	0.78	inactive
AVL9 (AVL9 cell migration associated)	SID315454975	1.62	inactive
ANKRD7 (ankyrin repeat domain 7)	SID315458072	-0.18	inactive
ANKRD7 (ankyrin repeat domain 7)	SID315458072	0.3	inactive
ANKRD7 (ankyrin repeat domain 7)	SID315458072	-0.28	inactive
ANKRD7 (ankyrin repeat domain 7)	SID315458072	0.42	inactive
ZNF658B (zinc finger protein 658B (pseudogene))	SID315464789	-1.1	inactive
ZNF658B (zinc finger protein 658B (pseudogene))	SID315464789	0.37	inactive
ZNF658B (zinc finger protein 658B (pseudogene))	SID315464789	-0.23	inactive
ZNF658B (zinc finger protein 658B (pseudogene))	SID315464789	-0.92	inactive
SPANXA2 (SPANX family member A2)	SID315465200	-1.26	inactive
SPANXA2 (SPANX family member A2)	SID315465200	-1.15	inactive
SPANXA2 (SPANX family member A2)	SID315465200	-0.73	inactive
HBG2 (hemoglobin subunit gamma 2)	SID315449159	1.82	inactive
HBG2 (hemoglobin subunit gamma 2)	SID315449159	2	inactive
HBG2 (hemoglobin subunit gamma 2)	SID315449159	0.73	inactive
HBG2 (hemoglobin subunit gamma 2)	SID315449159	-1.29	inactive
CDKN1A (cyclin dependent kinase inhibitor 1A)	SID315447851	0.48	inactive
CDKN1A (cyclin dependent kinase inhibitor 1A)	SID315447851	0.36	inactive
CDKN1A (cyclin dependent kinase inhibitor 1A)	SID315447851	-1.08	inactive
CDKN1A (cyclin dependent kinase inhibitor 1A)	SID315447851	-1.15	inactive
TWNK (twinkle mtDNA helicase)	SID315458097	0.23	inactive
TWNK (twinkle mtDNA helicase)	SID315458097	-0.13	inactive
TWNK (twinkle mtDNA helicase)	SID315458097	-0.68	inactive
TWNK (twinkle mtDNA helicase)	SID315458097	-0.14	inactive
MEST (mesoderm specific transcript)	SID315449947	2.81	active
MEST (mesoderm specific transcript)	SID315449947	1.07	inactive
MEST (mesoderm specific transcript)	SID315449947	1.22	inactive
MEST (mesoderm specific transcript)	SID315449947	1.14	inactive
THNSL1 (threonine synthase like 1)	SID315459548	-0.95	inactive
THNSL1 (threonine synthase like 1)	SID315459548	-0.85	inactive
THNSL1 (threonine synthase like 1)	SID315459548	-0.75	inactive
THNSL1 (threonine synthase like 1)	SID315459548	-0.72	inactive
XKRY (XK related, Y-linked (pseudogene))	SID315453027	0.58	inactive
XKRY (XK related, Y-linked (pseudogene))	SID315453027	1.39	inactive
XKRY (XK related, Y-linked (pseudogene))	SID315453027	-1.04	inactive
XKRY (XK related, Y-linked (pseudogene))	SID315453027	-0.7	inactive
CYB5R4 (cytochrome b5 reductase 4)	SID315456525	-0.28	inactive
CYB5R4 (cytochrome b5 reductase 4)	SID315456525	-0.19	inactive
CYB5R4 (cytochrome b5 reductase 4)	SID315456525	-0.39	inactive
CYB5R4 (cytochrome b5 reductase 4)	SID315456525	0.36	inactive
TBX6 (T-box transcription factor 6)	SID315451772	1.38	inactive
TBX6 (T-box transcription factor 6)	SID315451772	1.42	inactive
TBX6 (T-box transcription factor 6)	SID315451772	0.44	inactive
TBX6 (T-box transcription factor 6)	SID315451772	0.67	inactive
GPATCH11 (G-patch domain containing 11)	SID315463423	-1.06	inactive
GPATCH11 (G-patch domain containing 11)	SID315463423	-1.07	inactive
GPATCH11 (G-patch domain containing 11)	SID315463423	-1.62	active
GPATCH11 (G-patch domain containing 11)	SID315463423	-1.25	inactive

The list goes on.
target	PubChem SID	TNF reporter robust z-score	Call
CPA2 (carboxypeptidase A2)	SID315448061	1.41	inactive
CPA2 (carboxypeptidase A2)	SID315448061	0.22	inactive
CPA2 (carboxypeptidase A2)	SID315448061	1.05	inactive
CPA2 (carboxypeptidase A2)	SID315448061	-0.1	inactive
OR6B2 (olfactory receptor family 6 subfamily B member 2)	SID315464535		inactive
OR6B2 (olfactory receptor family 6 subfamily B member 2)	SID315464535	-0.65	inactive
OR6B2 (olfactory receptor family 6 subfamily B member 2)	SID315464535	-1.12	inactive
OR6B2 (olfactory receptor family 6 subfamily B member 2)	SID315464535	-1.26	inactive
CCL27 (C-C motif chemokine ligand 27)	SID315454400	0.16	inactive
CCL27 (C-C motif chemokine ligand 27)	SID315454400	0.6	inactive
CCL27 (C-C motif chemokine ligand 27)	SID315454400	0.64	inactive
CCL27 (C-C motif chemokine ligand 27)	SID315454400	0.43	inactive
ATP4B (ATPase H+/K+ transporting subunit beta)	SID315447464	0.57	inactive
ATP4B (ATPase H+/K+ transporting subunit beta)	SID315447464	2.57	inactive
ATP4B (ATPase H+/K+ transporting subunit beta)	SID315447464	0.76	inactive
ATP4B (ATPase H+/K+ transporting subunit beta)	SID315447464	3.08	active
PIK3CD	SID315450591	1.51	inactive
PIK3CD	SID315450591	0.51	inactive
PIK3CD	SID315450591	1.74	inactive
PIK3CD	SID315450591	1.77	inactive
SIGLEC11 (sialic acid binding Ig like lectin 11)	SID315461215	8.14	active
SIGLEC11 (sialic acid binding Ig like lectin 11)	SID315461215	-0.74	inactive
SIGLEC11 (sialic acid binding Ig like lectin 11)	SID315461215	-0.88	inactive
SIGLEC11 (sialic acid binding Ig like lectin 11)	SID315461215	-1.58	active
CCDC190 (coiled-coil domain containing 190)	SID315464043	0.4	inactive
CCDC190 (coiled-coil domain containing 190)	SID315464043	-0.28	inactive
CCDC190 (coiled-coil domain containing 190)	SID315464043	-0.34	inactive
CCDC190 (coiled-coil domain containing 190)	SID315464043	0.47	inactive
SPSB4 (splA/ryanodine receptor domain and SOCS box containing 4)	SID315461007	-0.6	inactive
SPSB4 (splA/ryanodine receptor domain and SOCS box containing 4)	SID315461007	1.53	inactive
SPSB4 (splA/ryanodine receptor domain and SOCS box containing 4)	SID315461007	1.92	inactive
SPSB4 (splA/ryanodine receptor domain and SOCS box containing 4)	SID315461007	0.82	inactive
GABRD (gamma-aminobutyric acid type A receptor subunit delta)	SID315448805	-1.41	inactive
GABRD (gamma-aminobutyric acid type A receptor subunit delta)	SID315448805	0.99	inactive
GABRD (gamma-aminobutyric acid type A receptor subunit delta)	SID315448805	0.4	inactive
GABRD (gamma-aminobutyric acid type A receptor subunit delta)	SID315448805	-0.08	inactive
FRY (FRY microtubule binding protein)	SID315453841	-1.03	inactive
FRY (FRY microtubule binding protein)	SID315453841	-1.24	inactive
FRY (FRY microtubule binding protein)	SID315453841	-0.69	inactive
FRY (FRY microtubule binding protein)	SID315453841	-1.19	inactive
PAX2 (paired box 2)	SID315450428	-0.52	inactive
PAX2 (paired box 2)	SID315450428	0.86	inactive
PAX2 (paired box 2)	SID315450428	-0.25	inactive
PAX2 (paired box 2)	SID315450428	1.89	inactive
RNF24 (ring finger protein 24)	SID315454708	0.73	inactive
RNF24 (ring finger protein 24)	SID315454708	1.22	inactive
RNF24 (ring finger protein 24)	SID315454708	1.28	inactive
RNF24 (ring finger protein 24)	SID315454708	-1.12	inactive
FGF7 (fibroblast growth factor 7)	SID315448678	-1.17	inactive
FGF7 (fibroblast growth factor 7)	SID315448678	-1.14	inactive
FGF7 (fibroblast growth factor 7)	SID315448678	-1.15	inactive
FGF7 (fibroblast growth factor 7)	SID315448678	-0.87	inactive
INSL6 (insulin like 6)	SID315454661	-0.6	inactive
INSL6 (insulin like 6)	SID315454661	-1.22	inactive
INSL6 (insulin like 6)	SID315454661	-0.83	inactive
INSL6 (insulin like 6)	SID315454661	-0.57	inactive
DENND3 (DENN domain containing 3)	SID315454856	-0.62	inactive
DENND3 (DENN domain containing 3)	SID315454856	-0.59	inactive
DENND3 (DENN domain containing 3)	SID315454856	0.18	inactive
DENND3 (DENN domain containing 3)	SID315454856	-0.36	inactive
SLC9A6	SID315454124	1.09	inactive
SLC9A6	SID315454124	1.21	inactive
SLC9A6	SID315454124	-0.18	inactive
SLC9A6	SID315454124	1.47	inactive
RAB11FIP1 (RAB11 family interacting protein 1)	SID315459710	1.43	inactive
RAB11FIP1 (RAB11 family interacting protein 1)	SID315459710	2.55	inactive
RAB11FIP1 (RAB11 family interacting protein 1)	SID315459710	1.5	inactive
RAB11FIP1 (RAB11 family interacting protein 1)	SID315459710	2.25	inactive
PROCR (protein C receptor)	SID315454177	-0.56	inactive
PROCR (protein C receptor)	SID315454177	0.24	inactive
PROCR (protein C receptor)	SID315454177	-0.17	inactive
PROCR (protein C receptor)	SID315454177	-0.98	inactive
ANGEL1 (angel homolog 1)	SID315455182	1.06	inactive
ANGEL1 (angel homolog 1)	SID315455182	-0.07	inactive
ANGEL1 (angel homolog 1)	SID315455182	-0.89	inactive
ANGEL1 (angel homolog 1)	SID315455182	0.01	inactive
NIPA2 (NIPA magnesium transporter 2)	SID315459915	-0.98	inactive
NIPA2 (NIPA magnesium transporter 2)	SID315459915	-0.42	inactive
NIPA2 (NIPA magnesium transporter 2)	SID315459915	-1.16	inactive
NIPA2 (NIPA magnesium transporter 2)	SID315459915	-1.73	active
